Laboratory results from patent publication US5019647A (Merck & Co., Inc., priority 1988, dated 1991).
HELM strings list residues between dots; [ac] is acetyl, [am] amide, other brackets name non-standard units.

Experiment: general procedure: peptide synthesis; dicyclohexylcarbodiimide / 1-hydroxybenzotriazole
Conditions: coupling step, reverse-phase HPLC

Substance: PEPTIDE1{[ac].H.W.A.V.G.H.[LeuolOEt]}$$$$V2.0
- final HPLC purity: 97.5%
